## Screening data, single-dose tests

By UniProt entry, the sequences of proteins in these tests, tags left out.
UniProt I6X8D2, whole entry: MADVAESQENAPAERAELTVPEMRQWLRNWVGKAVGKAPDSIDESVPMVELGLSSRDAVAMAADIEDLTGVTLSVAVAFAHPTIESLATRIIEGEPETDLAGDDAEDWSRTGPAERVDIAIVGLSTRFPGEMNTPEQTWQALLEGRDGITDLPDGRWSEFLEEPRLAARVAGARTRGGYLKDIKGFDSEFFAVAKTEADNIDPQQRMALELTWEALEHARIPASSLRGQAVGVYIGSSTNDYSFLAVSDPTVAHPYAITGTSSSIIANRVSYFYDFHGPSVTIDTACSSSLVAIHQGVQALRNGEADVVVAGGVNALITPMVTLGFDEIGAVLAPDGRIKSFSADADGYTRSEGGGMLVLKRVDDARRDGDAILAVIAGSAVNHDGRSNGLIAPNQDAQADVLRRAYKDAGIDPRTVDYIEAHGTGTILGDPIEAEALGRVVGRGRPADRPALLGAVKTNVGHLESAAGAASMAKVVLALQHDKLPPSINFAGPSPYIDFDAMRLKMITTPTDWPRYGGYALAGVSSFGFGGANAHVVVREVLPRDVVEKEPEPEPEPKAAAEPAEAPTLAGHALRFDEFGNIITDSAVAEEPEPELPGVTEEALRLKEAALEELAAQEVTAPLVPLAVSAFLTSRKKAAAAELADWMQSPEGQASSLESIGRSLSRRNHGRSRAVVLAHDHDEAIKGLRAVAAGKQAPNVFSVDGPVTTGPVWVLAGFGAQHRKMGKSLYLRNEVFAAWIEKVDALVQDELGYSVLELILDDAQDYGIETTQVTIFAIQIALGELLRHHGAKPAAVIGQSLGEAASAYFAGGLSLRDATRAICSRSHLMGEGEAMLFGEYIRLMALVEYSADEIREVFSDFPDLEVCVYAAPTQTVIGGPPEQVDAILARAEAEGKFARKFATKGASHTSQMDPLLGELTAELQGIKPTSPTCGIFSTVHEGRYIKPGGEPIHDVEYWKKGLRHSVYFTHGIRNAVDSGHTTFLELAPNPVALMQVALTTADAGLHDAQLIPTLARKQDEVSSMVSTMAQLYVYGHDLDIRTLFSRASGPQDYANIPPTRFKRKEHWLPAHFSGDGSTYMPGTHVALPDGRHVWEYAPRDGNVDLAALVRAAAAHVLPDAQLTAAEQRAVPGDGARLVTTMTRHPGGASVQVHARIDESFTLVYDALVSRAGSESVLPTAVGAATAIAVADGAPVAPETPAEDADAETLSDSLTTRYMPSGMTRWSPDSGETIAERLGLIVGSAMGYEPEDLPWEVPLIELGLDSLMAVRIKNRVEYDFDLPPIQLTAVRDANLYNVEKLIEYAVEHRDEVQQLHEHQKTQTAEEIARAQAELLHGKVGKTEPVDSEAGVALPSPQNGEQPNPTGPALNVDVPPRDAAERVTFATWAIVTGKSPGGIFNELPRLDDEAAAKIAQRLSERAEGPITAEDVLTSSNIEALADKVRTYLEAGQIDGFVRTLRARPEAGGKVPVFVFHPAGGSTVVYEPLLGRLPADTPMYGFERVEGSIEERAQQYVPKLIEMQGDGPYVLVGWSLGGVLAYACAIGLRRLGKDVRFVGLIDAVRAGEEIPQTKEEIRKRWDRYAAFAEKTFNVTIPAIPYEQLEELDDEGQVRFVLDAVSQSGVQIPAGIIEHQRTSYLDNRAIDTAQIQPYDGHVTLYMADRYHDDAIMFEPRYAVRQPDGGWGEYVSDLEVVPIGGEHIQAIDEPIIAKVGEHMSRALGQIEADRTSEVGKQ

The values are deposited in ChEMBL (CHEMBL3988442, “University of Dundee, Small-Polar-MMV Screening Library” (2021)).

The filed quantity is “Percent Effect” (%). How 0% and 100% were set is not recorded. Most values in the screen are low, and negative values occur. Compounds were drawn at random from those tested, without regard to their results.

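Enzyme assay of the thioesterase domain of polyketide synthase 13; the read-out is not stated. Target: Polyketide synthase Pks13, Mycobacterium tuberculosis (UniProt I6X8D2). Tested at 30 µM. Higher reads as stronger inhibition (inferred from which compounds were picked for retests). Of about 67,000 compounds tested this way, about 300 (0.46%) reached 50% or more in at least one test.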

| SMILES | percent effect |
|---|---|
| `Cc1noc(C)c1CNC(=O)C(C)Oc1ccccc1F` (centres unmarked) | -5.45 |
| `Cc1ccc([C@]2(O)CC[C@H]3CN(Cc4ccncc4)C[C@H]32)nc1` | -39.93 |
| `O=C(C1=CC2(CCNCC2)c2ccccc21)N1CCCC1` | -10.45 |
| `CC(=O)NCCC(=O)NCC1(c2c(F)cccc2F)CCCC1` | -13.01 |
| `CN(CC1(O)CCCN(Cc2cccc(F)c2F)C1=O)C1CCCCC1` (centres unmarked) | -12.76 |
| `COCCCN(Cc1ccncc1)C(=O)CSc1ccc(F)cc1` | -6.805 |
| `Cc1nc(CNC(=O)N2CCCC(c3ncc[nH]3)C2)sc1C` (centres unmarked) | -29.37 |
| `CN(Cc1nnnn1C1CC1)CC1COc2ccccc2O1` (centres unmarked) | -18.22 |
| `Cc1noc(C)c1CNC(=O)Nc1ccc(N2CCSCC2)cc1` | -3.551 |
| `Cc1ccc(-c2nnc([C@H]3CCN(C4CCC4)C3)o2)cc1` | 11.75 |
| `Nc1cc(-c2cccs2)nn(CC(=O)N2CCc3ccccc32)c1=O` | -0.6763 |
| `c1csc(-c2noc(CNCCn3cccn3)n2)c1` | -14.34 |
| `O=C(c1ccn(COc2ccc(F)cc2)n1)N1CCCC1` | -7.581 |
| `COc1cccc(C(=O)N2C[C@@H](c3ccccc3)[C@@H]3NCCCC[C@@H]32)c1` | -5.048 |
| `CCN1C[C@H]2C[C@H](C(=O)NCc3cccnc3)[C@@H](C1)O2` | -24.27 |
| `CCc1nccn1C1CCCN(C(=O)c2ccc3nnc(C)n3c2)C1` (centres unmarked) | -14.07 |
| `Cc1ccc(CN2CC[C@H]3C(=O)N(Cc4cccnc4)CCO[C@H]3C2)o1` | 4.157 |
| `COCCn1cc(C(=O)N2CCCC2c2ccc(F)cc2)ccc1=O` (centres unmarked) | 3.707 |
| `Cc1nc(CNc2ccc(C(=O)NCc3ccco3)cc2C)no1` | -30.18 |
| `CCc1nc(CC(=O)N2CCn3c(nnc3C(C)C)C2)cs1` | -8.489 |
| `COc1cc(C(=O)N(Cc2ccc(F)cc2)C2CC2)cc2c1OCCO2` | -67.76 |
| `Cc1ccc(CN2CCN(Cc3nccn3C)[C@H]3CS(=O)(=O)C[C@H]32)o1` | -15.72 |
| `O=C(CNc1cc(F)ccc1OCC1CCCO1)N1CCOCC1` (centres unmarked) | -5.635 |
| `Cc1ccc(-c2cc(C(=O)NCCCc3csc(N)n3)[nH]n2)o1` | -10.85 |
| `CN(C)CCNC(=O)c1ccc(OC2CCN(CC3CC3)CC2)c(Cl)c1` | -10.07 |
| `CCc1cn[nH]c1C1CCN(c2cc(C)c3ccc(OC)cc3n2)CC1` | 13.37 |
| `Cc1csc(N2CCCN(C(=O)CCNc3ncccn3)CC2)n1` | 7.1 |
| `CC(C)N(C)[C@@H]1CCN(Cc2ccoc2)[C@H]1Cc1ccccc1` | -34.23 |
| `CCC1CCCCN1S(=O)(=O)c1c(N)noc1C` (centres unmarked) | -38.18 |
| `CCN1CC(CN(C)Cc2nc(-c3ccc(F)cc3F)oc2C)CC1=O` (centres unmarked) | -3.652 |
| `C[C@@H]1CN(C(=O)c2nc3ccc(Cl)cn3c2-c2ncc[nH]2)C[C@H](C)O1` | 5.76 |
| `O=C(COC1CCCC1)NS(=O)(=O)c1ccc2c(c1)OCCCO2` | -9.238 |
| `CCn1ccnc1CN1CCN(CC(=O)NC2CCOCC2)CC1` | -26.96 |
| `O=C1N(Cc2ccncc2)CCC12CCCNC2` (centres unmarked) | -25.4 |
| `Cc1nnc(CN(C)CC(=O)N2CCCN(C3CCCC3)CC2)n1C` | -22.56 |
| `Nc1nc(Cn2ccnc2-c2cc(CN3CCCC3)cs2)cs1` | -12.79 |
| `Cc1ccc(CNC2(Cc3cc(-c4cccc(O)c4)on3)COC2)o1` | -30.7 |
| `CN(C)CC1CN(C(=O)Cc2ccccc2)Cc2nccn2C1` (centres unmarked) | -3.547 |
| `O=C(NCCN1CCOCC1)c1cnc(-c2ccccc2F)s1` | -5.875 |
| `CC(C)C(NC(=O)NCC1(CO)CC1)c1nnc2n1CCC2` (centres unmarked) | -9.365 |
| `O=C(c1nc2c(s1)CCCN2C(=O)C1CC1)N1CCOCC1` | -33.08 |
| `CC1CN(CC(=O)NCc2ccccc2)CCN1Cc1nccn1C` (centres unmarked) | -18.98 |
| `CC(C)c1cc(NC2CCN(C(=O)N3CCCC3)CC2)ncn1` | 10.41 |
| `Cc1ccc(CN2CCOC(C)(c3cnn(C)c3)C2)cc1` (centres unmarked) | -5.586 |
| `CC(=O)N1CCC2(CCCN(C(=O)c3ccccc3)C2)C1` (centres unmarked) | -33.65 |
| `COC(=O)c1cccn1C1CCN(CC(=O)NC2CCCCC2)CC1` | -6.64 |
| `COCc1cc(N2CCOCC2)n2nccc2n1` | -21.65 |
| `CN1N=C(C(=O)NCc2ccc3c(c2)CCCN3C)CCC1=O` | -6.624 |
| `COCCN1CC(C(=O)NCc2cccnc2-n2cccn2)CC1=O` (centres unmarked) | -7.095 |
| `COCc1ncc(CN2CCN(C)C(=O)C2C)cn1` (centres unmarked) | 4.866 |
| `COc1cccc(CN(C)C(C)c2ccco2)c1OCCn1ccnc1` (centres unmarked) | -57.35 |
| `CC(C)c1noc(C(C)S(=O)(=O)CC(=O)N2CCCC2)n1` (centres unmarked) | -6.206 |
| `CN(C)[C@H]1CCN(c2ccnc(C(=O)NCc3ccco3)c2)C1` | -8.505 |
| `CCOC(=O)CCC(=O)NC(C)c1ccc(NC(=O)CC)cc1` (centres unmarked) | -19.5 |
| `CCc1ccc(CN2CCN(C(=O)C(C)C)[C@@H]3CS(=O)(=O)C[C@@H]32)cc1` | -19.64 |
| `CCCN(CC)Cc1ccc(C(=O)NCC2COCCO2)c(=O)[nH]1` (centres unmarked) | -12.07 |
| `CCn1c(CC2CCN(S(=O)(=O)c3cccs3)CC2)nn(C)c1=O` | -8.83 |
| `COCc1cccc(NC(=O)NCCCN(C)S(C)(=O)=O)c1` | -16.02 |